This assay concerns the target T1, C-reactive protein (human (endogenous in serum)) (UniProt P02741).
T1 sequence: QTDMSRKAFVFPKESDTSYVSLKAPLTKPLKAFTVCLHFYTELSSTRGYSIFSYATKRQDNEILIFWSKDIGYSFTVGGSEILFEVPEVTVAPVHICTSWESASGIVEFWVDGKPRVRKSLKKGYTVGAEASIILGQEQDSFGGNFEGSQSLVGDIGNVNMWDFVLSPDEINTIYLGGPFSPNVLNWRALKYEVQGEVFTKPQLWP
As to the kind of experiment: affinity purification with mass spectrometry; CRP complexes precipitated from mixed serum with anti-CRP beads as above; two-dimensional electrophoresis, spots that differ twofold or more between patients and healthy controls identified by MALDI TOF/TOF MS.

Chains of the proteins cited; added tags and fusions are not shown. Residues count along the entry.
UniProt P06733: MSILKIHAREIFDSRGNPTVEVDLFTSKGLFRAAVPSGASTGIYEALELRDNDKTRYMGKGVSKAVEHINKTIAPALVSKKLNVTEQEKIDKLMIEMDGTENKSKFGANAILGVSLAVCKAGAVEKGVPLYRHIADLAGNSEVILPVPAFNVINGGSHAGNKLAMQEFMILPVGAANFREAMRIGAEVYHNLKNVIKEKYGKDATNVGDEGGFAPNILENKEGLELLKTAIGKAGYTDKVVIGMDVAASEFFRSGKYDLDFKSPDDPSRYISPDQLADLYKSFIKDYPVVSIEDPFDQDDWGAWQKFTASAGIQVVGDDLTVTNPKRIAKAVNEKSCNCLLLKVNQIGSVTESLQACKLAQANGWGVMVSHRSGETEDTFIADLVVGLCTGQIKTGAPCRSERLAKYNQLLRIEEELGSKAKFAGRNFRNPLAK
UniProt P10909, residues 23-449: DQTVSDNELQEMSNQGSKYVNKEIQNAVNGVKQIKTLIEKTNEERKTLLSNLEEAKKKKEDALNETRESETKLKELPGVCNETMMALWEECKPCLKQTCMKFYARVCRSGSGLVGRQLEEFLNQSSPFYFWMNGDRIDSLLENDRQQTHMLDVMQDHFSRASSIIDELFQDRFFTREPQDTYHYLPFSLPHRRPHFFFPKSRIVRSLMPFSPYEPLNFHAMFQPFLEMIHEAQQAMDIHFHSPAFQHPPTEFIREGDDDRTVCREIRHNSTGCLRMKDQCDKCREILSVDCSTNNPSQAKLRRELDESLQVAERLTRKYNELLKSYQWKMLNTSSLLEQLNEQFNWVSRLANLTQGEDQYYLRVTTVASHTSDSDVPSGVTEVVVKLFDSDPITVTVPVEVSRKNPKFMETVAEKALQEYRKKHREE
UniProt P02649, residues 19-317: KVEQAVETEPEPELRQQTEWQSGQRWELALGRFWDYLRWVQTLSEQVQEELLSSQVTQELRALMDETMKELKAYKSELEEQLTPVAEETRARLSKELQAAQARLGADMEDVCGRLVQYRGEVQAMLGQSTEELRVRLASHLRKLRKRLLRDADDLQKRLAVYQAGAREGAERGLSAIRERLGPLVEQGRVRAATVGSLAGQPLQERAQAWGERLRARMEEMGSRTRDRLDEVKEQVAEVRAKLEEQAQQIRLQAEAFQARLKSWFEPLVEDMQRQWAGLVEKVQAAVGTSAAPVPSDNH
UniProt P04264: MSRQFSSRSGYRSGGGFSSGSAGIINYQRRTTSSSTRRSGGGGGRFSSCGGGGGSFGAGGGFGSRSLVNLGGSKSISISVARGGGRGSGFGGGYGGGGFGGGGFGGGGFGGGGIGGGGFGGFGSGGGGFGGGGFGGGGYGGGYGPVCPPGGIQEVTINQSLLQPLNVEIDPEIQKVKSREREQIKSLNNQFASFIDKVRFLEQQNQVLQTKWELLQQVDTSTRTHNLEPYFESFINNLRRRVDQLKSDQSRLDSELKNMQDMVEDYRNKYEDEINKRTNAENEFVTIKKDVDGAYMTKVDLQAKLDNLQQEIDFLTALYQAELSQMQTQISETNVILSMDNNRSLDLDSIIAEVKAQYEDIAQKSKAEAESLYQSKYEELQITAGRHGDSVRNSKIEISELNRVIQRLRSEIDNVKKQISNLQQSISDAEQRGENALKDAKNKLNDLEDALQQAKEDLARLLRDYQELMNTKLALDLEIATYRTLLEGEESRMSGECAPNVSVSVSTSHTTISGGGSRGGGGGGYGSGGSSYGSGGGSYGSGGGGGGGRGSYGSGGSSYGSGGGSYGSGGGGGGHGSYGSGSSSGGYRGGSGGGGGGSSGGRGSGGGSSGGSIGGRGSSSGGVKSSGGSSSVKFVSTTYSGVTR
UniProt P08670: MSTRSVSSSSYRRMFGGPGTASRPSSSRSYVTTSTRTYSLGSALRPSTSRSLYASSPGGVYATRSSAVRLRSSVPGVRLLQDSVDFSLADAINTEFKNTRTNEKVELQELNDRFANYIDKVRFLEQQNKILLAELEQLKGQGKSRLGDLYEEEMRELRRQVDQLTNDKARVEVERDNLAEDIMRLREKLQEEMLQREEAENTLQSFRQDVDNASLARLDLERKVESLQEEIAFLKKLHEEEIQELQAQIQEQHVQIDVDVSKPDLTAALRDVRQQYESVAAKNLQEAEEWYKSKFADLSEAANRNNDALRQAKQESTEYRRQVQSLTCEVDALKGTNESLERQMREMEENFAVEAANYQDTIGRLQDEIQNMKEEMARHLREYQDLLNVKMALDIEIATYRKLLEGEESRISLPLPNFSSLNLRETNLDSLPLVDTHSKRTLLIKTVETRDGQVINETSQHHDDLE
UniProt P69905: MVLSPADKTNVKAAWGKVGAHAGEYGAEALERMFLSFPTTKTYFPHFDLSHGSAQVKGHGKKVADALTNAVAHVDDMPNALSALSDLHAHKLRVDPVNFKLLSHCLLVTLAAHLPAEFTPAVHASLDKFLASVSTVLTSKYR

We go through eight substances from PMC4593389.

No constants are given. Whether binding was seen depends on the method and setting. In cells and extracts the contact can be indirect. These calls come from enrichment with a bait or labelling near it, and not all partners need be listed.

As for enolase 1 (from UniProt P06733 1-434), the binding result is “binds”.

With “Ig kappa chain C region (human (endogenous in serum))”, the binding entry is “binds”.

With “SAA2 isoform A (human (endogenous in serum))”, the binding result is listed as “binds”.

Regarding “clusterin (entry highly similar to Clusterin, IPI00291262) (from UniProt P10909 23-449)”, the binding entry is listed as “binds”.

“apolipoprotein E (from UniProt P02649 19-317)”: the binding result was “binds”.

In the case of “keratin, type II cytoskeletal 1 (from UniProt P04264 1-644)”, the binding entry is “binds”.

Take vimentin (from UniProt P08670 1-466): the binding entry is reported as “binds”.

Consider “hemoglobin (HBA1/HBA2) (from UniProt P69905 1-142)”, for which the binding result is recorded as “binds”.
